Results reported in PubChem BioAssay (NCATS).
Where “and” joins values, the source holds several entries; their conditions need not be identical. Identical values can stand only once. This is one part of the list. Shown are side measurements of this screen, not its main read-out; they come without a call. Most of these compounds were active or inconclusive in the main read-out, so they are no random draw. Words in brackets tell the shape of the fitted curve; partial curves, single points and poor fits give uncertain potencies.

Test: qHTS Assay for Inhibitors of PDE-IV (AID 607)
Conditions: HEK293 ACTOne CNG channel cells, membrane potential fluorescence; measured here: parental cell counter-screen
Procedure, shortened: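 Cell-based read-out of cAMP via a modified cyclic nucleotide-gated channel and membrane potential dye (535/590 nm) in HEK293 cells expressing PDE4 endogenously. Compounds tested up to 22.9 uM final; 100 uM RO 20-1724 reference.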

SMILES | AC50
CCCC[C@@H]1C[C@H]1C(NC(=O)c1ccc(C(F)(F)F)cc1)c1ccc(C(=O)OC)cc1 (stereo partly specified) | 2.51 µM [rising, full curve]
CC(=O)N[C@H](c1ccccc1)[C@@]1(C)C[C@@H]1[C@@H](C)C(=O)Nc1ccc2ccccc2c1 | 0.631 µM [rising, single point]
COC(=O)[C@@]1(Cc2ccccc2)[C@H]2c3cc(C(=O)N4CCCC4)n(C)c3C[C@H]2CN1C(=O)c1ccccc1 | 12.6 µM [rising, single point]
CC(C)=CCC/C(C)=C/COc1c2ccoc2cc2oc(=O)ccc12 | 15.8 µM [rising, partial curve]
O=C1CC2(CCCC2)CC(=O)N1CCNC[C@H]1COc2ccccc2O1 | 12.6 µM [rising, partial curve, poor fit]
CCCCOc1cc(C(=O)OCCN(CC)CC)ccc1N | 1 µM [rising, partial curve, poor fit]
COc1ccc(CNc2ccnc(-c3ccccc3C(F)(F)F)n2)c(OC)c1 | 10 µM [rising, single point]
CCC/C=C(\CCC)C(NP(=O)(c1ccccc1)c1ccccc1)c1ccc(-c2ccccc2)cc1 (stereo unspecified) | 10 µM [rising, single point]
COc1ccc2nc3c(c(-c4ccccc4)c2c1)CCC3 | 10 µM [rising, single point]
C[C@H](C(=O)O)c1cccc(Oc2ccccc2)c1 | 7.94 µM [rising, single point]
O[C@@](CCN1CCCCC1)(c1ccccc1)C1CCCCC1 | 10 µM [rising, partial curve] and 7.94 µM [rising, partial curve]
